# Experimental data from patent publication US9828630B2, “Methods of enhancing genetic diagnosis” (BioLamina AB, priority 2011, dated 2017).
# For some of these results: At least one structure is not confirmed: it was looked up by name or label, or the drawing left a doubt. Some results were stated once for a whole list of compounds, not compound by compound.
# How the values were obtained:
# human ES cells = test: Cell adhesion assay, 1 hour after plating on coated plates; type: cell-based; conditions: dissociated hES cells, Example 2
# Experimental: The assay was performed as described (Extracellular Matrix Protocols, 2000). Briefly, 96-well plates were coated by extracellular matrix proteins as described above and blocked by O3 medium containing bovine serum albumin. The ES cells were plated at a cell density of 600 cell/mm^2 upon extracellular matrix-coated plates and were left to adhere for either 1 hour or 1 day at the cell incubator. Non-adherent cells were washed away, and adherent cells were fixed for 20 min by 5% glutaraldehyde, stained by 0.1% Crystal Violet.
# Briefly, 96-well plates were coated by extracellular matrix proteins as described above and blocked by O3 medium containing bovine serum albumin. The ES cells were plated at cell density of 50,000 cells/cm^2 onto extracellular matrix-coated plates and left to adhere for 1 hour in a cell incubator. After that the plates were washed 3 times with the medium to remove the non-adherent cells, and then the adherent cells were fixed for 20 minutes by 5% glutaraldehyde, stained by 0.1% Crystal Violet. (Kebo Lab, Spanga, Sweden, http://www.kebolab.se). After one hour and 3 washes with water, Crystal Violet was extracted with 10% acetic acid and quantified by measuring optical density at 570 nm. All the experiments were performed in quadruplicate.
# human ES cells on LN-521 = test: Inhibition of survival assay on LN-521 (function blocking antibodies, pathway inhibitors); type: cell-based; conditions: medium contained bFGF, FIG. 16
# Experimental: The survival assay was performed as described for the cell adhesion assay above, except that the cells were left in the cell incubator for 24 hours. For inhibition of survival assay, the cells were kept in a medium with function blocking antibodies at the concentrations recommended by the manufacturer or pathway inhibitors at concentrations indicated in the text for 30 minutes, and then plated on the coated dishes. All the experiments were performed in quadruplicate.
# Akt and MEK1 = test: Western blot of inhibitor treated and control cells one hour after plating on LN-521; type: cell-based, human; conditions: one hour after plating on LN-521, FIG. 18 and 19
# Experimental: HS 181 cells were trypsinized into single cell suspension as described above. For inhibition experiments, the cells were kept in O3 medium with blocking antibodies or pathway inhibitors for 30 minutes and then […] cells were plated on 35 mm dishes precoated with the appropriate matrix coating. For other experiments, same number of cells was plated directly after trypsinization. In all cases the cells were allowed to spread for 1 hour at 37° C., 5% CO2. After two washings in ice-cold PBS, the plates with cells were snap frozen in liquid nitrogen and stored at -80° C. To prepare samples for western blots and ELISA, the plates were slowly thawed and kept on ice with 100-150 μl of lysis buffer (50 mM Tris-HCl, pH7.5, 150 mM NaCl, 0.5% deoxycholate, 0.5% SDS, 1% Triton X-100, 1% Igepal, CompleteTM (Roche) and Phospho-StopTM (Roche)) on top. Then, the cells were scraped, pipetted and sheared through a 27 G 3⁄4'' needle. After that, the cell pellets were clarified by centrifugation at 16,100 rcf for 15 minutes at 4° C. For western blots, 4-12% gradient gels were used for SDS electrophoresis and the proteins were transferred to PVDF membranes. The membrane was hybridized with the antibody of interest according to the manufacturer's instructions. […] For the densitometry analysis the films were scanned at 2,400 dpi and analyzed by the […]5500 program (1 D-Multi Line densitometry mode). […]
Compound,cells adhered after one hour (human ES cells),survival of hES cells 24 hours after plating on LN-521 with pathway inhibitor (human ES cells on LN-521),efficacy of inhibitor treatment by western blot (Akt and MEK1)
"LN-521: protein formed by joining laminin α5, β2 and γ1 chains; human recombinant, produced in HEK293 cells",75-80%,–,–
O=c1cc(N2CCOCC2)oc2c(-c3ccccc3)cccc12 [LY 294002],–,no cells surviving,confirmed
COC[C@H]1OC(=O)c2coc3c2[C@@]1(C)C1=C(C3=O)[C@@H]2CCC(=O)[C@@]2(C)C[C@H]1OC(C)=O [Wortmannin],–,failed to survive,–
